Data as given in PubChem BioAssay AID720504 (National Center for Advancing Translational Sciences (NCATS), 2013).
The whole screen tested about 360,000 compounds, of which about 10,000 (2.8%) were called active. Inconclusive results, whose numbers are uncertain, are shown with a selection of clear calls. Calls follow the shape of the dose curve; as a rule, active = well fitted inhibition curve with a large enough effect; inconclusive = small, poorly fitted or top-dose-only effect; inactive = flat fitted curve, though single readings scatter. A potency beside an inconclusive call is a rough fit, not a confirmed value.

Amino acid sequences for entries named in this document (tags omitted).
UniProt P53350, whole entry, looked up: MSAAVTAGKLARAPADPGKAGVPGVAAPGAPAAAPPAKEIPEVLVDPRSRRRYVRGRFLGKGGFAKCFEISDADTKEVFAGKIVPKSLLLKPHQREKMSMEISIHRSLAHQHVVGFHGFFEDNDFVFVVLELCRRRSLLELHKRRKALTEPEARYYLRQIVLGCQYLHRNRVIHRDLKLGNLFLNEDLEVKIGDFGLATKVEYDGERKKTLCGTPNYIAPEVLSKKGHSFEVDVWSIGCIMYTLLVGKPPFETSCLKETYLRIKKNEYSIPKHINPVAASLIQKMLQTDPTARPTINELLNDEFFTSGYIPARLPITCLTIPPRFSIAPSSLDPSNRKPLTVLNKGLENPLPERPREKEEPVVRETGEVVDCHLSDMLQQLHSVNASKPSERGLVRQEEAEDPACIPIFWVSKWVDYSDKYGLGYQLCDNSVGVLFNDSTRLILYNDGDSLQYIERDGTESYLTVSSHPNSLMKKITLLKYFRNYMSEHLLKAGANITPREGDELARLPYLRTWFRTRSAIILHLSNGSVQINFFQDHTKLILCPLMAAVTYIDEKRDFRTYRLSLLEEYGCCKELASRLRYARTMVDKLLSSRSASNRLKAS

Each molecule was assayed against Serine/threonine-protein kinase PLK1 (Homo sapiens) (UniProt P53350) (assay: qHTS for Inhibitors of PLK1-PDB (polo-like kinase 1 - polo-box domain): Primary Screen). Conditions: Plk1 PBD binding of FITC phosphopeptide, fluorescence polarization.
Source text: The polo-like kinase 1 (Plk1) is a member of a conserved subfamily of serine / threonine protein kinases that plays a pivotal roles in cell proliferation. It has a C-terminal non-catalytic region called the polo-box domain (PBD) that plays a crucial role in the subcellular localization of the Plk1. […] Furthermore, depletion of the overexpressed Plk1 by RNAi efficiently induces apoptotic cell death in cancer and reduces tumor growth in mouse xenograft models. Thus, targeting Plk1 is an appealing strategy for anti-cancer therapy. Therefore, this project aimed to screen the Molecular Libraries Small Molecule Repository (MLSMR) using a novel approach to find inhibitors that target the Plk1 PBD instead of the conventional N-terminal catalytic domain. This project employed a fluorescence polarization (FP) assay using a FITC-conjugated phospho-9-mer (p-9-mer) peptide and purified human Plk1 PBD protein. The identified small molecule inhibitors of Plk1 PBD can then further be developed into useful tools for biomedical and clinical research that complements or replaces current relevant disease therapy. NIH Chemical Genomics Center [NCGC] NIH Molecular Libraries Probe Centers Network [MLPCN] MLPCN Grant: MH100728 Assay Submitter (PI): Kyung Lee, NCI
Four microliter of 25 nM FITC-p-9-mer + 60 nM Plk1 PBD in buffer solution (final concentrations 25 nM and 60 nM respectively) or 4 uL of 25 nM FITC-p-9-mer (final concentration 25 nM) in buffer will be dispensed into a 1,536 Greiner medium-binding black solid plate. Small molecules at final concentrations of 18 nM to 57 uM and positive control phospho-9-mer (sequence: Ac-PPLHSpTAI-NH2) at final concentrations 26 nM to 57 uM and phospho-13-mer (sequence: Ac-[…]pTAI-NH2) at final concentrations of 1 nM to 2.3 uM will be pin-transferred (23 nL) to the plate via a Kalypsys pin-tool robotics equipped with a 1,536-pin array. The reaction plate will be centrifuged for 1 min at 1000 rpm and incubated at room temperature for 10 min. The FITC fluorescence signals will be read using the PerkinElmer ViewLux plate reader at 480 / 20 nm excitation and 540 / 20 nm S and P polarization emission wavelengths. Reagent bottles will be kept submerged into 4 °C recirculating chiller bath and all liquid lines will be covered with aluminum foil to minimize degradation. Library plates will be screened starting from the lowest to the highest concentrations to minimize compound carryover. Vehicle only plates, with DMSO being pin-transferred instead of compound solutions, will be included regularly throughout the screen to record any systematic shifts in assay signal.
% is scaled to controls: 0 for no effect and ±100 for the full control effect; potency is read from the fitted curve at half-maximal effect.
Also: nearly all actives have a fitted effect of over 65% in size.
For max response, negative = inhibition in this document: series mostly up to about 57 µM.

Row | Structure (SMILES) | max response, negative = inhibition | Potency
1 | O=C(COc1ccccc1[N+](=O)[O-])Nc1ccccc1N1CCCC1 | inactive: -10.8% | –
2 | Cc1ccc(-c2nn(-c3ccccc3)cc2/C=C2\SC(=S)N(CC(=O)O)C2=O)cc1 | – | active: 29.9 µM
3 | Nn1c(SCC(=O)NCC2CCCO2)nnc1-c1ccco1 (centres undefined) | – | inconclusive: 33.6 µM [inhibitor, single point]
4 | Nc1cccc2cc(S(=O)(=O)O)ccc12 | – | inconclusive: 26.7 µM [inhibitor, partial curve]
5 | Cc1n[nH]c(=O)c2c(NC(=O)CSc3ccccc3Cl)oc(C)c12 | – | inconclusive: 29.9 µM [inhibitor, single point]
6 | Cc1ccc(C(C2=C(O)CC(C)(C)CC2=O)C2C(=O)CC(C)(C)CC2=O)s1 (centres undefined) | – | active: 4.74 µM
7 | CC(C)CN(CCNC(=O)CN1C(=O)COc2ccc(S(=O)(=O)N3CCOCC3)cc21)CC(C)C | – | inconclusive: 26.7 µM [inhibitor, single point]
8 | COc1cccc(NC(=O)C2CC(=O)n3cnnc3S2)c1 (centres undefined) | – | inconclusive: 26.7 µM [inhibitor, single point]
9 | Cc1ccc(C(=O)O)cc1NC(=O)c1ccc2c(c1)C(=O)N(c1ccc([N+](=O)[O-])cc1)C2=O | inactive: -6% | –
10 | COc1ccc(C(=O)NC(=S)SCC(=O)O)cc1 | – | active: 18.9 µM
11 | CCc1nnc(NC(=O)C2CC(=O)N(CCc3ccc(F)cc3)C2)s1 (centres undefined) | – | inconclusive: 37.7 µM [inhibitor, partial curve, poor fit]
12 | CC(=O)Nc1cccc(C(=O)Nc2ccccc2C(=O)O)c1 | – | inconclusive: 33.6 µM [inhibitor, single point]
13 | O=C(Nc1ccc(Cl)cc1C(F)(F)F)c1ccccc1Cl | – | inconclusive: 23.8 µM [inhibitor, single point]
14 | COc1ccccc1C(=O)Nc1cccc2c1CCCC2 | inactive: -11% | –
15 | CCc1ccc(CNc2ccc(O)cc2)cc1 | – | active: 29.9 µM
16 | O=C1CSC(=S)N1c1cccc(Cl)c1 | – | inconclusive: 37.7 µM [inhibitor, partial curve]
17 | O=C(Nc1ccc2c(c1)OCO2)c1csc(COCCO)n1 | inactive: -6.09% | –
18 | CCCCN(CC)S(=O)(=O)c1ccc(C(=O)Nc2nnc(COC)o2)cc1 | – | inconclusive: 23.8 µM [inhibitor, single point]
19 | COc1ccc(CCN(CC(=O)NCc2ccc(F)cc2)C(=O)c2snc(C(N)=O)c2N)cc1OC | inactive: -4.7% | –
20 | CCc1ccc(Nc2n[n+](C)c(-c3ccncc3)s2)cc1 | – | inconclusive: 21.2 µM [inhibitor, partial curve]
21 | CCn1c(SCC(=O)Nc2ccc3c(c2)OCCO3)nnc1C(C)C | – | inconclusive: 26.7 µM [inhibitor, partial curve]
22 | CC1=CC(C)(C)n2c(O)c(N=N)c3c(C)c(C)cc1c32 | inactive: -11.2% | –
23 | CC(=O)N1CSCC1C(=O)NNS(=O)(=O)c1ccccc1 (centres undefined) | inactive: -5.4% | –

Arranged by formula weight (ascending): four of the compounds above.
Row | Structure (SMILES) | max response, negative = inhibition | Potency
20 | CCc1ccc(Nc2n[n+](C)c(-c3ccncc3)s2)cc1 | – | inconclusive: 21.2 µM [inhibitor, partial curve]
17 | O=C(Nc1ccc2c(c1)OCO2)c1csc(COCCO)n1 | inactive: -6.09% | –
5 | Cc1n[nH]c(=O)c2c(NC(=O)CSc3ccccc3Cl)oc(C)c12 | – | inconclusive: 29.9 µM [inhibitor, single point]
18 | CCCCN(CC)S(=O)(=O)c1ccc(C(=O)Nc2nnc(COC)o2)cc1 | – | inconclusive: 23.8 µM [inhibitor, single point]

Remaining list, next part.

Row | Structure (SMILES) | max response, negative = inhibition | Potency
24 | CC1CCCCN1S(=O)(=O)c1ccc(C(=O)Nc2nnc(-c3cccs3)o2)cc1 (centres undefined) | – | inconclusive: 18.9 µM [inhibitor, single point]
25 | Nc1nc(-c2nc3ccccc3[nH]2)cs1 | inactive: -9.66% | –
26 | O=C(CCC(=O)N(CC(=O)NC1CCCCC1)Cc1ccccc1)Nc1ccccn1 | – | inconclusive: 13.4 µM [inhibitor, partial curve]
27 | COc1cccc(S(=O)(=O)N2C[C@H](O)COC[C@H]3O[C@@H](CC(=O)N4CCN(C)CC4)CC[C@@H]32)c1 | inactive: -2.15% | –
28 | CCC(CC)NC(=O)/C=C/c1cccc([N+](=O)[O-])c1 | – | inconclusive: 26.7 µM [inhibitor, partial curve]
29 | CCOC(=O)c1ccc(Cn2cnc3ccccc3c2=O)cc1 | – | inconclusive: 26.7 µM [inhibitor, single point]
30 | CCOC(=O)CCCCC(=O)c1[nH]c(=O)[nH]c1CSc1nc2ccccc2[nH]1 | – | inconclusive: 21.2 µM [inhibitor, partial curve]
31 | CCN(CC)S(=O)(=O)c1ccc(Cl)c(C(=O)NC(C)C(c2cccs2)N2CCCC2)c1 (centres undefined) | – | inconclusive: 29.9 µM [inhibitor, partial curve]
32 | O=C(c1cc(-c2ccco2)on1)N1CCN(C(c2ccccc2)c2ccccc2)CC1 | inactive: -3.2% | –
33 | O=C(NCCNC(=O)c1ccccc1O)c1ccccc1O | inactive: 3.37% | –
34 | O=C(O)c1ccc(-n2c(O)c(C=C3N=c4ccccc4=N3)sc2=S)cc1 | – | inconclusive: 21.2 µM [inhibitor, partial curve]
35 | Cc1ccc(CN(C(=O)COc2ccc(Br)cc2)C2CCS(=O)(=O)C2)o1 (centres undefined) | – | active: 11.9 µM
36 | Cc1ccc(/C=C/C(=O)Nc2ccc([N+](=O)[O-])c(NC(=O)/C=C/c3ccc(C)o3)c2)o1 | – | inconclusive: 26.7 µM [inhibitor, partial curve]
37 | CCOC(=O)c1sc(NC(C)=O)c(C(=O)OCC)c1C | – | inconclusive: 29.9 µM [inhibitor, partial curve]
38 | COc1ccc(-c2c3c(=O)n(C)c(=O)n(C)c3cn2C2CCCCC2)cc1 | inactive: -14.7% | –
39 | Cc1cc(C)cc(N2C(=O)C3CCCN3C2=S)c1 (centres undefined) | – | inconclusive: 2.67 µM [inhibitor, partial curve]
40 | CC(C)c1ccc(CSc2ccc(S(=O)(=O)N3CCOCC3)cn2)cc1 | – | inconclusive: 18.9 µM [inhibitor, partial curve]
41 | CCS(=O)(=O)n1nc(-c2ccco2)nc1SC | – | active: 9.47 µM
42 | Nc1n[nH]c2cc(=O)n(-c3cccc(C(F)(F)F)c3)nc12 | – | inconclusive: 8.44 µM [inhibitor, partial curve]
43 | CC1CCN(c2ccc(C(=O)O)cc2NS(=O)(=O)c2ccc(Br)cc2)CC1 | – | inconclusive: 29.9 µM [inhibitor, partial curve, poor fit]
44 | CCc1cc2c(=O)n(Cc3ccco3)c(SCC(=O)N(C)C3CCS(=O)(=O)C3)nc2s1 (centres undefined) | – | inconclusive: 37.7 µM [inhibitor, partial curve]
45 | CC(=O)c1cccc(OCc2cc(C(=O)N(C)C(C)c3ccccn3)no2)c1 (centres undefined) | – | inconclusive: 26.7 µM [inhibitor, single point]
46 | CCS(=O)(=O)C1=NN2C(=N)/C(=C\c3ccc(OS(=O)(=O)c4ccccc4)cc3)C(=O)N=C2S1 | – | active: 21.2 µM

Row | Structure (SMILES) | max response, negative = inhibition | Potency
47 | Cc1cc(C)c(S(=O)(=O)N2CCN(C(=O)N3CCCCC3)CC2)c(C)c1 | inactive: -11.4% | –
48 | Cn1c2ccccc2c(=O)c2c(=O)n(-c3ccc(F)cc3)c(C3CCCCC3)nc21 | inactive: -5.07% | –
49 | CC(=O)Nc1ccc(NC(=O)CSc2nc3nc(-c4cccs4)cc(C(F)(F)F)c3c(=O)[nH]2)cc1 | – | inconclusive: 18.9 µM [inhibitor, partial curve]
50 | Cc1ccc(CNC(=O)C2CCN(S(=O)(=O)c3cccs3)CC2)cc1 | – | inconclusive: 29.9 µM [inhibitor, partial curve]
51 | O=C(Nc1cccc(Oc2ccc(C(=O)O)c(C(=O)O)c2)c1)c1ccc(-c2ccccc2)cc1 | – | active: 18.9 µM
52 | COc1ccc(S(=O)(=O)N(C)C[C@H]2Oc3ccc(NC(=O)Cc4cn(C)c5ccccc45)cc3C(=O)N([C@@H](C)CO)C[C@@H]2C)cc1 | inactive: 0.397% | –
53 | Cc1ccc(C)c(OCc2cc(C(=O)N3CCOCC3)no2)c1 | inactive: -10.6% | –
54 | CC(=O)OCC1=C(C(=O)O)N2C(=O)C(NC(=O)CCn3nc(C)c(Cl)c3C)C2SC1 (centres undefined) | inactive: -8.2% | –
55 | COc1ccc(-n2c(C)cc(/C=C3\SC(=S)N(Cc4ccco4)C3=O)c2C)cc1 | inactive: -15.6% | –
56 | Cc1cc(-c2ccc(C(C)C)c(S(=O)(=O)N3CCN(c4ccccc4)CC3)c2)on1 | – | inconclusive: 33.6 µM [inhibitor, single point]
57 | COc1ccc(CCC(N)=O)cc1OC | inconclusive: -36.6% [inhibitor] | –
58 | CC1=C([N+](=O)[O-])C(c2ccc(Cl)cc2)NC(=O)N1C (centres undefined) | – | active: 2.99 µM
59 | CC1(C)Cc2cccc(C(=O)Nc3ccc(F)cc3F)c2O1 | – | inconclusive: 26.7 µM [inhibitor, single point]
60 | CCOC(=O)CC(=O)CSCC(=O)Nc1ccc(C)cc1 | – | inconclusive: 15 µM [inhibitor, partial curve]
61 | COC(=O)c1ccccc1NC(=S)NC(=O)c1ccc2ccccc2c1 | – | inconclusive: 13.4 µM [inhibitor, partial curve]
62 | COc1ccc(-c2[nH][nH]c(=O)c2NC(=O)c2ccc([N+](=O)[O-])cc2)cc1 | inactive: -12.4% | –
63 | N#Cc1ccsc1NC(=O)CSc1nncs1 | – | inconclusive: 26.7 µM [inhibitor, single point]
64 | Cc1cccc(N2CCN(S(=O)(=O)c3c(C(=O)N4CCCCC4)c(C)n(C)c3C)CC2)c1C | – | inconclusive: 21.2 µM [inhibitor, single point]
65 | COCCN=C1Sc2nc3ccc(C)cc3cc2CN1Cc1ccco1 | inactive: -8.44% | –
66 | CC1(C(=O)Nc2ccc3c(c2)OCCO3)CCN1C(=O)c1ccccc1CCc1ccccc1 (centres undefined) | inactive: 0.828% | –
67 | Cc1cccc(N2CCN(C(=O)C3CCN(S(=O)(=O)N4CCOCC4)CC3)CC2C)c1 (centres undefined) | – | inconclusive: 18.9 µM [inhibitor, partial curve]
68 | COCc1nnc(NC(=O)c2ccccc2[N+](=O)[O-])s1 | inconclusive: -30.2% [inhibitor] | –
69 | Cc1nn(CC(=O)N2CCC(C(N)=O)CC2)c(=O)c2nn(-c3ccccc3)c(C)c12 | – | inconclusive: 29.9 µM [inhibitor, partial curve]
